# The supplement of paper PMC12542422
# Counter-ions that a name gives are not always drawn. ± gives the standard deviation of the averaged measurements. The list shows a part of the results. Values are raw readings; no control value is given beside them.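 Ribosome-assembly readouts in HeLa cells were imaged via ENP1 staining, with or without export block, or inducible tagged ribosomal protein reporters. Machine learning classified per-cell signal location versus solvent (DMSO) controls. Hits surpassed the DMSO false-positive mean by five standard deviations and were visually confirmed; three biological replicates.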
# Test system: HeLa RPL29-GFP reporter
# Assay: fraction of reporter-positive cells with nuclear (nucleolar or nucleolar/nucleoplasmic) RPL29-GFP (MainHitrate); higher = more cells with nucleolar/nuclear readout signal (for ENP1 -LMB: less RNAPI inhibition; for +LMB ENP1 and RP reporters: stronger nuclear/nucleolar retention, i.e. ribosome biogenesis defect)
# Settings: concentration: 1 µM; treatment time: 6 h
row,Compound,fraction of reporter-positive cells with nuclear
1,CCc1c(Cl)c(O)c(Cl)c(O)c1C(=O)O[C@H]1[C@H](O)[C@H](OC)[C@H](OC/C2=C\C=C\C[C@H](O)/C(C)=C/[C@H](CC)[C@@H](O[C@@H]3OC(C)(C)[C@@H](OC(=O)C(C)C)[C@H](O)[C@@H]3O)/C(C)=C/C(C)=C/C[C@@H]([C@@H](C)O)OC2=O)O[C@@H]1C [Fidaxomicin],0.214 ± 0.091
2,COc1ccc(CN2CCN(C(c3ccc(F)cc3)c3ccc(F)cc3)CC2)c(OC)c1OC [Lomerizine HCl],0.221 ± 0.061
3,CC(N/C(=N\C#N)Nc1ccncc1)C(C)(C)C (stereo not given) [Pinacidil],0.273 ± 0.17
4,CO[C@H]1/C=C/O[C@@]2(C)Oc3c(C)c(O)c4c(O)c(c(/C=N/N5CCN(C6CCCC6)CC5)c(O)c4c3C2=O)NC(=O)/C(C)=C\C=C\[C@H](C)[C@H](O)[C@@H](C)[C@@H](O)[C@@H](C)[C@H](OC(C)=O)[C@@H]1C [Rifapentine (Priftin)],0.211 ± 0.052
5,CC(C)NCC(O)COc1ccc(CCOCC2CC2)cc1 (stereo not given) [Betaxolol (Betoptic)],0.228 ± 0.077
6,N=C(N)c1ccc(OCCCCCOc2ccc(C(=N)N)cc2)cc1 [Pentamidine],0.208 ± 0.065
7,COc1ccc2cc1Oc1ccc(cc1)C[C@H]1c3c(cc4c(c3Oc3cc5c(cc3OC)CCN(C)[C@@H]5C2)OCO4)CCN1C [Cepharanthine],0.22 ± 0.072
8,COC(=O)C1=C(C)NC(C)=C(C(=O)OC2CCCN(Cc3ccccc3)C2)C1c1cccc([N+](=O)[O-])c1 (stereo not given) [Benidipine hydrochloride],0.24 ± 0.12
9,CC[C@H](C)C(=O)O[C@H]1C[C@H](O)C=C2C=C[C@H](C)[C@H](CC[C@@H](O)C[C@@H](O)CC(=O)O)[C@H]21 [Pravastatin sodium],0.196 ± 0.045
10,Nc1ccn([C@@H]2O[C@H](CO)[C@@H](O)[C@H]2O)c(=O)n1 [Cytidine],0.229 ± 0.059
11,CCN[C@H]1C[C@H](C)S(=O)(=O)c2sc(S(N)(=O)=O)cc21 [Dorzolamide HCL],0.212 ± 0.055
12,O=C1CN2Cc3c(ccc(Cl)c3Cl)N=C2N1 [Anagrelide HCl],0.214 ± 0.08
13,CCOC(=O)O[C@]1(C(=O)OCCl)CC[C@H]2[C@@H]3CCC4=CC(=O)C=C[C@]4(C)[C@H]3[C@@H](O)C[C@@]21C [Loteprednol etabonate],0.284 ± 0.028
14,Cc1ccc(S(=O)(=O)NC(=O)NN2CCCCCC2)cc1 [Tolazamide],0.301 ± 0.23
15,CC[C@H]1OC(=O)[C@H](C)[C@@H](O[C@H]2C[C@@](C)(OC)[C@@H](O)[C@H](C)O2)[C@H](C)[C@@H](O[C@@H]2O[C@H](C)C[C@H](N(C)C)[C@H]2O)[C@](C)(O)C[C@@H](C)/C(=N\OCOCCOC)[C@H](C)[C@@H](O)[C@]1(C)O [Roxithromycin (Roxl-150)],0.181 ± 0.031
16,CC(C)[C@H]1CC[C@H](C(=O)N[C@H](Cc2ccccc2)C(=O)O)CC1 [Nateglinide (Starlix)],0.224 ± 0.074
17,CC(C)C[C@H](NC(=O)[C@H](CCc1ccccc1)NC(=O)CN1CCOCC1)C(=O)N[C@@H](Cc1ccccc1)C(=O)N[C@@H](CC(C)C)C(=O)[C@@]1(C)CO1 [Carfilzomib (PR-171)],0.668 ± 0.36
18,COc1ccc(Cl)cc1C(=O)NCCc1ccc(S(=O)(=O)NC(=O)NC2CCCCC2)cc1 [Glyburide (Diabeta)],0.223 ± 0.084
19,CN(C)[C@@H]1C(O)=C(C(N)=O)C(=O)[C@@]2(O)C(O)=C3C(=O)c4c(O)cccc4[C@@](C)(O)[C@H]3[C@H](O)[C@@H]12 [Oxytetracycline (Terramycin)],0.215 ± 0.074
20,CC(=O)O[C@H]1C[C@@H]2CC[C@@H]3[C@H](CC[C@@]4(C)[C@H]3C[C@H]([N+]3(C)CCCCC3)[C@@H]4OC(C)=O)[C@@]2(C)C[C@@H]1N1CCCCC1 [Vecuronium Bromide],0.21 ± 0.086
21,COc1ccc2[nH]c([S@@+]([O-])Cc3ncc(C)c(OC)c3C)nc2c1 [Esomeprazole sodium (Nexium)],0.244 ± 0.11
22,CNS(=O)(=O)Cc1ccc2[nH]cc(CCN(C)C)c2c1 [Sumatriptan succinate],0.206 ± 0.071
23,O=C(O)/C=C/c1ccc(Cn2ccnc2)cc1 [Ozagrel],0.223 ± 0.053
24,COc1c(C)c2c(c(O)c1C/C=C(\C)CCC(=O)OCCN1CCOCC1)C(=O)OC2 [Mycophenolate mofetil (CellCept)],0.358 ± 0.13
25,N#CC[C@H](C1CCCC1)n1cc(-c2ncnc3[nH]ccc23)cn1,0.201 ± 0.092

# As a short view, some entries already given.
row,Compound,fraction of reporter-positive cells with nuclear
17,CC(C)C[C@H](NC(=O)[C@H](CCc1ccccc1)NC(=O)CN1CCOCC1)C(=O)N[C@@H](Cc1ccccc1)C(=O)N[C@@H](CC(C)C)C(=O)[C@@]1(C)CO1 [Carfilzomib (PR-171)],0.668 ± 0.36
18,COc1ccc(Cl)cc1C(=O)NCCc1ccc(S(=O)(=O)NC(=O)NC2CCCCC2)cc1 [Glyburide (Diabeta)],0.223 ± 0.084
